Data on 23 compounds can be found in PubChem BioAssay AID180 (DTP/NCI, 2004).

The assay has as its system BDF1 mice, Adenocarcinoma 755 s.c., tumor weight T/C. The assay can be described thus: NCI In Vivo Anticancer Drug Screen. Data for tumor model Adenocarcinoma 755 (subcutaneous) in B6D2F1 (BDF1) mice. The conditions noted are these: T/C endpoint: mean tumor weight, higher T/C = larger tumour; for T/C: evaluated on day 12. In outline: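 Compound activity was tested in mice carrying transplanted tumors. Survival or tumor size was measured, and each value is the treated-group measurement divided by that of the vehicle-treated control group (T/C).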

The mark [1] stands for this setting: dose: 100.0 mg/kg/injection, schedule: Q01DX011 (ip), vehicle: carboxymethylcellulose (CMC).
[2] abbreviates: dose: 200.0 mg/kg/injection, schedule: Q01DX011 (ip), vehicle: carboxymethylcellulose (CMC).
[3] abbreviates: dose: 500.0 mg/kg/injection, schedule: Q01DX011 (ip), vehicle: methylcellulose (MC).
Setting [4] is: dose: 125.0 mg/kg/injection, schedule: Q01DX011 (ip), vehicle: carboxymethylcellulose (CMC).

Molecules are shown by their SMILES. The list does not hold the whole screen: it gathers tests that were run many times, whatever their T/C, doses with no T/C, and many T/C values between a quarter and a half above the control. Further doses and runs are listed elsewhere. T/C is the treated group as % of the vehicle group. Schedules are NCI's codes, taken here to give the interval after Q, in days (D) or hours (H), and the number of doses after X. Some entries give survivors of the animals treated and no T/C: the source holds a T/C of zero for them, seemingly a mark for toxic or unscored doses. Survivors were counted at the toxicity check, usually on the fifth day, unless a day is given; later deaths do not show. Some schedule codes hold Z or #, which are not explained here.

Regarding `[I][Hg][CH2]C1OC2CCC1C[CH]2[Hg][I]` (configuration not stated), the survivor count is on record as 4 of 10 (dose: 12.0 mg/kg/injection, schedule: Q01DX011 (ip), vehicle: carboxymethylcellulose (CMC)); 0 of 10 (dose: 25.0 mg/kg/injection, schedule: Q01DX011 (ip), vehicle: carboxymethylcellulose (CMC)); 0 of 10 (dose: 50.0 mg/kg/injection, schedule: Q01DX011 (ip), vehicle: carboxymethylcellulose (CMC)); 0 of 10 under setting [1]; 0 of 10 under setting [2].

Consider `CCC(=O)N(CC)CC`, for which, where the note is “dose: 500.0 mg/kg/injection, schedule: Q01DX011 (ip), vehicle: other”, the survivor count is listed as 1 of 10.

With `C[C@H]1C[C@H]2[C@@H]3CC[C@](O)(C(=O)CF)[C@@]3(C)C[C@H](O)[C@]2(F)[C@@]2(C)C=CC(=O)C=C12`, the survivor count (dose: 80.0 mg/kg/injection, schedule: Q01DX011 (sc), vehicle: steroid suspending solution) is 4 of 10.

As to `C/C=C1\CN(C)[C@H]2Cc3c([nH]c4ccccc34)[C@@H](c3cc4[nH]c5c(c4cc3OC)CCN3C[C@H]4C[C@H](CC)[C@H]3[C@@]5(C(=O)OC)C4)C[C@H]1C2C(=O)OC` (some centres not stated), the survivor count (dose: 60.0 mg/kg/injection, schedule: Q01DX011 (ip), vehicle: water) is 2 of 12.

For the compound `[I][Hg][CH2]C1OCCOC1[CH2][Hg][I]` (configuration not stated), the survivor count was 5 of 10 (dose: 40.0 mg/kg/injection, schedule: Q01DX011 (ip), vehicle: carboxymethylcellulose (CMC)); 3 of 10 (dose: 64.0 mg/kg/injection, schedule: Q01DX011 (ip), vehicle: carboxymethylcellulose (CMC)); 1 of 10 (dose: 80.0 mg/kg/injection, schedule: Q01DX011 (ip), vehicle: carboxymethylcellulose (CMC)); 0 of 10 (dose: 128.0 mg/kg/injection, schedule: Q01DX011 (ip), vehicle: carboxymethylcellulose (CMC)).

Turning to `NC(=O)CF`, where the note is “dose: 5.0 mg/kg/injection, schedule: Q01DX011 (ip), vehicle: other”, the survivor count is reported as 5 of 10.

Take `O=C(CCBr)NCCCCCCNC(=O)CCBr`: for the setting “dose: 450.0 mg/kg/injection, schedule: Q01DX011 (ip), vehicle: methylcellulose (MC)”, the survivor count is reported as 4 of 10.

With `CCCCn1cnc2c(SCc3ccccc3Cl)nc(N)nc21`, the survivor count under setting [3] is 5 of 10.

Take `S=c1nc[nH]c2c1ncn2C1CCCCO1` (configuration not stated): the survivor count (dose: 62.0 mg/kg/injection, schedule: Q01DX011 (ip), vehicle: carboxymethylcellulose (CMC)) is given as 0 of 10 and the survivor count under setting [4] is 0 of 10.

`Cc1ccccc1CNc1ncnc2[nH]ncc12`: the survivor count (dose: 150.0 mg/kg/injection, schedule: Q01DX011 (ip), vehicle: saline) is reported as 3 of 10.

As to `C[C@H]1C(=O)O[C@@H]2CCN3CC=C(COC(=O)[C@](C)(O)[C@@]1(C)O)[C@H]23`, the survivor count (dose: 180.0 mg/kg/injection, schedule: Q01DX011 (ip), vehicle: methylcellulose (MC)) is on record as 2 of 10.

Turning to `COC1=C(N)C(=O)c2nc(-c3nc(C(=O)O)c(C)c(-c4ccc(OC)c(OC)c4O)c3N)ccc2C1=O`, the survivor count (dose: 25.0 micrograms/kg/injection, schedule: Q01DX011 (ip), vehicle: water) is recorded as 6 of 10.

On to `CCCCn1cnc2c(=O)[nH]cnc21`, for which the survivor count is 6 of 10 (dose: 1.8 mg/kg/injection, schedule: Q01DX011 (oral), vehicle: carboxymethylcellulose (CMC)); 6 of 10 (dose: 66.12 mg/kg/injection, schedule: Q01DX011 (ip), vehicle: carboxymethylcellulose (CMC)); 1 of 10 (dose: 529.0 mg/kg/injection, schedule: Q01DX011 (ip), vehicle: carboxymethylcellulose (CMC)); 0 of 10 (dose: 529.0 mg/kg/injection, schedule: Q01DX011 (ip), vehicle: other); 5 of 9 (dose: 1058.0 mg/kg/injection, schedule: Q01DX011 (oral), vehicle: carboxymethylcellulose (CMC)).

Consider `CCCCn1cnc2c(=S)nc[nH]c21`, for which the survivor count is 6 of 10 (dose: 1.2 mg/kg/injection, schedule: Q01DX011 (ip), vehicle: olive oil, sesame oil, peanut oil); 5 of 10 (dose: 2.5 mg/kg/injection, schedule: Q01DX011 (ip), vehicle: olive oil, sesame oil, peanut oil); 0 of 10 under setting [4].

`CS(=O)(=O)c1nc(N)nc2nc[nH]c12`: the survivor count (dose: 30.0 mg/kg/injection, schedule: Q01DX011 (ip), vehicle: carboxymethylcellulose (CMC)) is 3 of 10.

For the compound `O=C(CCl)N1c2ccccc2Oc2cc3ccccc3cc21`, the survivor count (dose: 56.0 mg/kg/injection, schedule: Q01DX011 (ip), vehicle: methylcellulose (MC)) is 6 of 10 and the survivor count (dose: 112.0 mg/kg/injection, schedule: Q01DX011 (ip), vehicle: methylcellulose (MC)) is recorded as 3 of 10.

Turning to `COS(C)(=O)=O`, the survivor count was 1 of 10 under setting [1] and 0 of 10 under setting [2].

`CC1(C)O[C@@H]2C[C@H]3[C@@H]4CCC5=CC(=O)C=C[C@]5(C)[C@@]4(F)[C@@H](O)C[C@]3(C)[C@]2(C(=O)CO)O1`: the survivor count (dose: 10.0 mg/kg/injection, schedule: Q01DX011 (sc), vehicle: steroid suspending solution) is 1 of 10; the survivor count (dose: 12.0 mg/kg/injection, schedule: Q01DX011 (sc), vehicle: steroid suspending solution) was 1 of 12; the survivor count (dose: 15.0 mg/kg/injection, schedule: Q01DX011 (sc), vehicle: steroid suspending solution) is on record as 4 of 10; the survivor count (dose: 30.0 mg/kg/injection, schedule: Q01DX011 (sc), vehicle: steroid suspending solution) is listed as 0 of 10; the survivor count (dose: 60.0 mg/kg/injection, schedule: Q01DX011 (sc), vehicle: steroid suspending solution) is 0 of 10.

`CC(=O)[C@@]1(O)[C@H](C)C[C@H]2[C@@H]3C=C(C)C4=Cc5c(cnn5-c5ccccc5)C[C@]4(C)[C@H]3[C@@H](O)C[C@@]21C`: the survivor count reads like this: (dose: 0.5 mg/kg/injection, schedule: Q01DX011 (sc), vehicle: steroid suspending solution) 1 of 6; (dose: 1.0 mg/kg/injection, schedule: Q01DX011 (sc), vehicle: steroid suspending solution) 6 of 10.

With `Clc1ccc(N2CCN(CCCN3CCN(c4cccc(Cl)c4)CC3)CC2)cc1`, the survivor count is recorded as 6 of 10 (dose: 5.0 mg/kg/injection, schedule: Q01DX011 (ip), vehicle: methylcellulose (MC)); 6 of 10 (dose: 20.0 mg/kg/injection, schedule: Q01DX011 (ip), vehicle: methylcellulose (MC)); 3 of 10 (dose: 40.0 mg/kg/injection, schedule: Q01DX011 (ip), vehicle: methylcellulose (MC)).

Consider `C1OC1C1CO1` (configuration not stated), for which the T/C (dose: 6.1 mg/kg/injection, schedule: Q01DX011 (ip), vehicle: carboxymethylcellulose (CMC)) was 128 % of control.

As to `Nc1nc(NCc2ccccc2)cc(=O)[nH]1`, under setting [3], the survivor count was 5 of 10.

Take `CCOC(N)=O`: under “dose: 125.0 mg/kg/injection, schedule: Q01DX001 (ip), vehicle: saline”, the T/C is 134 % of control. Moreover, the survivor count is reported as 0 of 10 (dose: 500.0 mg/kg/injection, schedule: Q#A X022 (ip), vehicle: saline); 6 of 10 (dose: 501.0 mg/kg/injection, schedule: Q01DX011 (ip), vehicle: carboxymethylcellulose (CMC)); 2 of 9 (dose: 820.0 mg/kg/injection, schedule: Q01DX011 (ip), vehicle: carboxymethylcellulose (CMC)); 3 of 10 (dose: 1000.0 mg/kg/injection, schedule: Q01DX011 (im), vehicle: saline); 3 of 10 (dose: 1000.0 mg/kg/injection, schedule: Q01DX011 (ip), vehicle: methylcellulose (MC)); 0 of 10 (dose: 1000.0 mg/kg/injection, schedule: Q01DX011 (ip), vehicle: saline). The survivor count by setting is: (dose: 1000.0 mg/kg/injection, schedule: Q01DX011 (oral), vehicle: saline) 4 of 9; (dose: 1000.0 mg/kg/injection, schedule: Q01DX011 (sc), vehicle: saline) 1 of 10; (dose: 1500.0 mg/kg/injection, schedule: Q03DX004 (ip), vehicle: saline) 3 of 10; (dose: 2000.0 mg/kg/injection, schedule: Q01DX011 (oral), vehicle: saline) 0 of 10; (dose: 3000.0 mg/kg/injection, schedule: Q03DX004 (ip), vehicle: saline) 0 of 10.
